According to US20260033466A1, “METHOD AND ANIMAL MODEL FOR INDUCING BCC TUMORS” (FELDAN BIO INC., priority 2022, published 2026):
For at least one compound, name, drawing or mass did not settle the structure.

Test system: GFP (indicative of Ptch1 and p53 shRNA expression)
Assay: Immunofluorescence of GFP in skin of BCC mice after induction, no UV-B
Type: in vivo, mouse
Settings: absence of UV, fluorescence microscopy of skin sections, FIG. 4

Structure (SMILES): C[C@H]1c2cccc(O)c2C(=O)C2=C(O)[C@]3(O)C(=O)C(C(N)=O)=C(O)[C@@H](N(C)C)[C@@H]3[C@@H](O)[C@@H]21 [doxycycline]
- GFP expression in skin (shRNAs targeting Ptch1 and p53): low levels of GFP expression
